Experimental data: the supplement of paper PMC3334620
Whole data set: some 33,000 sequences, median “E-score (-0.5 to 0.5)” near -0.0034, cut for the highest 2% near 0.25. This is one part of the list.

Target: T1, Yap3 (UniProt P38749)
T1 sequence: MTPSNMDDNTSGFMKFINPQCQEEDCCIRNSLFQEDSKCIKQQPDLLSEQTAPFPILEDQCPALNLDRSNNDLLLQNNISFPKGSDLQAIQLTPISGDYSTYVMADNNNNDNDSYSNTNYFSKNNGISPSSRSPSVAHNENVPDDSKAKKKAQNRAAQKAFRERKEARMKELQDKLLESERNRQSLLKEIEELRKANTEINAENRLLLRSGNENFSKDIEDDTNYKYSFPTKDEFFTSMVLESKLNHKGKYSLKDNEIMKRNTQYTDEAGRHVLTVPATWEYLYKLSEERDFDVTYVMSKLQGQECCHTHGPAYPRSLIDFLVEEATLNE
Test: PBM E-score (8-mer binding enrichment) (E-score (-0.5 to 0.5)); higher = stronger / more preferred TF binding
Settings: protein concentration: 100 nM; construct: GST-full length
Method: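 Universal 'all 10-mer' protein binding microarrays (Agilent AMADID 015681) probed with GST-tagged S. cerevisiae TFs (full-length or DBD) made by in vitro transcription/translation (PURExpress), about 100-200 nM. Bound TF was detected with fluorescent anti-GST. Each ungapped 8-mer (which stands for itself and its reverse complement) is scored by the PBM enrichment score (E-score), a modified Wilcoxon-Mann-Whitney statistic from -0.5 to +0.5, computed with the Universal PBM Analysis Suite. Scale: above 0.35 generally sequence-specific binding.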

Sequence	PBM E-score
ACGGTGCG	-0.00317
GTCAATTA	0.111
TAGTTATA	0.248
GAGATCCA	-0.12
GACAATGC	0.0992
CGCGATCC	-0.0417
AATTCCGA	0.181
AGATCTGG	-0.162
GGCAACAA	0.0652
AGAGATTC	0.0265
ATTTCACA	0.198
ATTCTGAG	0.0149
TATTGTCA	0.176
ACATGCCT	-0.0931
CATCTTCG	-0.0195
GTCACTGA	-0.121
CTTACAAA	0.19
ACCGCCGA	-0.0464
AAATCCCC	-0.159
ACGTCTAC	-0.0283
CCAGAGCG	-0.147
AACTTGGC	0.0892

Sequence	PBM E-score
CTAACTAA	0.175
ATGCTCGC	0.0848
AGCCTGAA	-0.0763
AAGTCGCC	-0.262
GTGGGCAA	-0.0581
GCGCTAAC	0.0488
ATCGGAAC	0.113
ACCCCACG	-0.143
CCTGGACC	-0.205
CAGGCAAA	0.139
CATGAATA	0.0196
AACGCCTA	0.0419
ACACACTC	0.186
GGAGCGGA	-0.168
AGGCCTGC	-0.105
AGTCCTCG	-0.143
CGGGAACG	-0.071
ACCCCGAG	-0.134
CATCGACA	-0.132
ATCACACA	0.146
AAGTGTGG	-0.00116
ACTGACGG	-0.0998

Sequence	PBM E-score
ACTCCCTC	-0.223
ACCATTGG	0.0207
GACGCATA	0.0801
ACCCAAGA	-0.105
AGAGAGTC	-0.035
AGCGAGCC	-0.122
GTTTCAGA	-0.0672
GACGTACA	0.0264
CCGTCGGC	-0.189
GAAATAGC	0.098
CAACCCGG	-0.275
ATAGTAAA	0.238
TGATCAAA	0.0113
AACCGCCA	-0.1
CTGCGGCA	-0.239
CGTTACCC	-0.116
CCAGTCAC	-0.111
ATGCTAAC	-0.064
ACTCCGAC	-0.0296
ACGGGTGG	-0.147
CATAACAA	0.18
CTCAGAAG	-0.218

Sequence	PBM E-score
CCACCTAA	-0.0162
AGACCGCT	-0.161
CATCGAGA	0.0462
GTGGGAGA	-0.13
CGACCGAG	-0.0733
CAACTTGC	-0.111
CAATGGTG	-0.213
ATGGTTCC	0.0898
AAAATTGC	0.0358
AGCTCTGG	-0.167
CGCGCACA	0.125
AAAATGTC	0.119
ACCCATCG	-0.123
CCTACACA	0.181
ATGCCGGG	-0.152
TCAGCTGA	0.104
ACCATCCG	0.0113
ACTTTGCG	0.052
ATGAGCAG	-0.182
ACGGTAGA	-0.0586
